Data on 32 molecules can be found in the supplement of paper PMC8256030.

“And” between values parts separate entries of the source, which are not always exact repeats. Equal entries are not always repeated. This is one part of the list. This data set is noisy: repeats of one test often differ as much as different tests do.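 HEK293T cells were given each compound shortly before transfection with a reporter in which red mCherry is followed by the SARS-CoV-2 frameshift element and then GFP in the −1 frame, so GFP appears only after frameshifting.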

In this experiment the test system is SARS-CoV-2 -1 PRF reporter mCherry-FSE-GFP(-1). Briefly: percent effect, decrease of GFP/mCherry ratio (-1 PRF reporter) relative to controls; higher = stronger frameshift inhibition. The following applies: 10 µM; 24 h; HEK293T.
With `COc1ccc(-n2nc(C(N)=O)c3c2C(=O)N(c2ccc(N4CCCCC4=O)cc2)CC3)cc1` [apixaban], the percent effect came to 5.71%.
Turning to `CCN1CC(CCN2CCOCC2)C(c2ccccc2)(c2ccccc2)C1=O` (configuration not stated), the percent effect was -5.47%.
Consider `NS(=O)(=O)c1cc(C(=O)O)cc(N2CCCC2)c1Oc1ccccc1` [piretanide], for which the percent effect was 0.961%.
The same measure for `CN1CCC(=C2c3ccccc3CCc3sccc32)CC1`: -2.18%; for `CN1C2CCCC1CC(NC(=O)c1nn(C)c3ccccc13)C2` (configuration not stated): -7.41%.
The value for `O=C(O)CN(CCN(CC(=O)O)CC(=O)O)CC(=O)O` [edetic acid] was -0.35%; that for `COc1cc(O)c(C(=O)c2ccccc2)cc1S(=O)(=O)O` was -3.23%.
In the case of `CCC(=O)c1c(O)cc(O)cc1O` [flopropione], the percent effect came to 3.62%.
The same measure for `CC(=O)O[C@@]12CO[C@@H]1C[C@H](O)[C@@]1(C)C(=O)[C@H](O)C3=C(C)[C@@H](OC(=O)[C@H](O)[C@@H](NC(=O)OC(C)(C)C)c4ccccc4)C[C@@](O)([C@@H](OC(=O)c4ccccc4)[C@H]21)C3(C)C` [docetaxel]: -1.86%; for `CCCCC/C=C\C/C=C\C/C=C\CCCCC(=O)O` [gamolenic acid]: -1.79%.
The value for `CC(=O)OCC1=C(C(=O)O)N2C(=O)[C@@H](NC(=O)Cc3cccs3)[C@H]2SC1` was -0.246%.
The same measure for `CN(C)C(=O)Cn1cc(-c2ccc(-c3cncc4ccccc34)cc2)cn1`: -1.06%.
On to `NCC1CC(=O)N(Cc2ccccc2)C1` (configuration not stated) [nebracetam], for which the percent effect is -5.3%.
As to `CO/N=C(\C(=O)N[C@@H]1C(=O)N2C(C(=O)O)=C(C)CS[C@H]12)c1csc(N)n1` [cefetamet], the percent effect is -1.69%.
Take `CC(C)(C)NC(=O)N[C@H](C(=O)N1C[C@H]2[C@@H]([C@H]1C(=O)NC(CC1CCC1)C(=O)C(N)=O)C2(C)C)C(C)(C)C` (some centres not stated) [Boceprevir]: the percent effect was -7.91%.
For the molecule `Cc1c(-c2ccc(O)cc2)n(Cc2ccc(OCCN3CCCCCC3)cc2)c2ccc(O)cc12` [bazedoxifene], the percent effect came out at 0.726%.
The value for `CC(C)CC(N)=O` was -0.342%; that for `CC(=O)OCC(=O)[C@@]1(O)CC[C@H]2[C@@H]3CCC4=CC(=O)C=C[C@]4(C)[C@H]3[C@@H](O)C[C@@]21C` was -7.4%; that for `N=C(N)c1ccc(OCCCCCCOc2ccc(C(=N)N)cc2)cc1` [hexamidine] was 7.8%.
The same measure for `CCCC(=O)N1CCCN(c2nc(N)c3cc(OC)c(OC)cc3n2)CC1` [bunazosin]: -21.8%.
For the molecule `N[C@@H](C(=O)N[C@@H]1C(=O)N2C(C(=O)O)=C(Cl)CS[C@H]12)c1ccccc1`, the percent effect was -5.34%.
The same measure for `CC(C)S(=O)(=O)n1c(N)nc2ccc(/C(=N/O)c3ccccc3)cc21` [enviroxime]: -8.35%; for `O=C(O)CCCCCCCC(=O)O` [azelaic acid]: -9.57%; for `Nc1cc(Cl)c(N=C2NCCN2)c(Cl)c1` [apraclonidine]: -8.38%.
On to `Cc1cc(C(C)(C)CC(C)(C)C)ccc1OCCOCC[N+](C)(C)Cc1ccccc1` [methylbenzethonium chloride], for which the percent effect was -9.07%.
The value for `CN1CCN(c2cc3c(nn2)Oc2ccccc2N3C)CC1` [pipofezine] was -9.61%.
Consider `CN1CCCCC1CCN1c2ccccc2Sc2ccc([S+](C)[O-])cc21` (configuration not stated) [mesoridazine], for which the percent effect came out at 0.904%.
For the molecule `C=CCc1cc(OC)c(O)c(C(=O)NCCO)c1` [alibendol], the percent effect is -4.58%.
For `CCC(c1ccccc1)c1noc(CCN(CC)CC)n1` (configuration not stated), the percent effect is -0.453%.
The same measure for `Cn1nnc2c(C(N)=O)ncn2c1=O` [temozolomide]: -2.68% and 0.165%; for `CC[C@H](C)[C@H](N)C1=N[C@H](C(=O)N[C@@H](CC(C)C)C(=O)N[C@H](CCC(=O)O)C(=O)N[C@H](C(=O)N[C@H]2CCCCNC(=O)[C@H](CC(N)=O)NC(=O)[C@@H](CC(=O)O)NC(=O)[C@H](Cc3cnc[nH]3)NC(=O)[C@@H](Cc3ccccc3)NC(=O)[C@H]([C@@H](C)CC)NC(=O)[C@@H](CCCN)NC2=O)[C@@H](C)CC)CS1`: -2.1%; for `NNCCc1ccccc1`: 0.778%.
